In US11931366B2, “Compositions and methods of use thereof for treatment of proteinopathies” (priority 2018, dated 2024):
For at least one compound, name, drawing or mass did not settle the structure.

Test system: mutant AT accumulation
Assay type: in vivo, C. elegans

Compound: CCOC(=O)C1=C(COCCN)NC(C)=C(C(=O)OC)C1c1ccccc1Cl (centres unmarked) [amlodipine]
- activity in reducing mutant AT accumulation, single drug (alone at 20 μM): modest activity
- mutant AT accumulation (alone or in combination, no concentration stated): reduces mutant AT accumulation
